Laboratory results taken from paper PMC12205081.
Results are given in words; binding and its absence hold for the method and conditions named. Binding calls can cover weak binding; strength is not graded here.

B1: PAB2 (recombinant) (protein, UniProt P42731 1-629)
chain: MAQVQLQGQTPNGSTAAVTSAPATSGGATATQFGNTSLYVGDLDFNVTDSQLFDAFGQMGTVVTVRVCRDLVTRRSLGYGYVNFTNPQDAARAIQELNYIPLYGKPIRVMYSHRDPSVRRSGAGNIFIKNLDESIDHKALHDTFSSFGNIVSCKVAVDSSGQSKGYGFVQYANEESAQKAIEKLNGMLLNDKQVYVGPFLRRQERDSTANKTKFTNVYVKNLAESTTDDDLKNAFGEYGKITSAVVMKDGEGKSKGFGFVNFENADDAARAVESLNGHKFDDKEWYVGRAQKKSERETELRVRYEQNLKEAADKFQSSNLYVKNLDPSISDEKLKEIFSPFGTVTSSKVMRDPNGTSKGSGFVAFATPEEATEAMSQLSGKMIESKPLYVAIAQRKEDRRVRLQAQFSQVRPVAMQPSVGPRMPVYPPGGPGIGQQMFYGQAPPAMIPPQPGYGYQQQLVPGMRPGGGPVPSFFMPMVQPQQQRPGGGRRPGGIQHSQQQNPMMQQQMHPRGRMFRYPQGRGGSGDVPPYDMGNNMPLTIGALASNLSNATPEQQRTMLGEVLYPLVEQVEAESAAKVTGMLLEMDQTEVLHLLESPEALKAKVAEAMDVLRSVAAGGATEQLASLNLS
B2: ECT2 (recombinant) (protein, UniProt Q9LJE5 1-667)
chain: MATVAPPADQATDLLQKLSLDSPAKASEIPEPNKKTAVYQYGGVDVHGQVPSYDRSLTPMLPSDAADPSVCYVPNPYNPYQYYNVYGSGQEWTDYPAYTNPEGVDMNSGIYGENGTVVYPQGYGYAAYPYSPATSPAPQLGGEGQLYGAQQYQYPNYFPNSGPYASSVATPTQPDLSANKPAGVKTLPADSNNVASAAGITKGSNGSAPVKPTNQATLNTSSNLYGMGAPGGGLAAGYQDPRYAYEGYYAPVPWHDGSKYSDVQRPVSGSGVASSYSKSSTVPSSRNQNYRSNSHYTSVHQPSSVTGYGTAQGYYNRMYQNKLYGQYGSTGRSALGYGSSGYDSRTNGRGWAATDNKYRSWGRGNSYYYGNENNVDGLNELNRGPRAKGTKNQKGNLDDSLEVKEQTGESNVTEVGEADNTCVVPDREQYNKEDFPVDYANAMFFIIKSYSEDDVHKSIKYNVWASTPNGNKKLAAAYQEAQQKAGGCPIFLFFSVNASGQFVGLAEMTGPVDFNTNVEYWQQDKWTGSFPLKWHIVKDVPNSLLKHITLENNENKPVTNSRDTQEVKLEQGLKIVKIFKEHSSKTCILDDFSFYEVRQKTILEKKAKQTQKQVSEEKVTDEKKESATAESASKESPAAVQTSSDVKVAENGSVAKPVTGDVVANGC
B3: RBP47b (recombinant) (protein, UniProt Q0WW84 1-435)
chain: MQTTNGSDSTLATSGATPPNQQTPPPPQQWQQQQQQQQQWMAAMQYPPAAAMMMMQQQQMLMYPHQYVPYNQGPYQQHHPQLHQYGSYQQHQHQQHKAIDRGSGDDVKTLWVGDLLHWMDETYLHSCFSHTGEVSSVKVIRNKLTSQSEGYGFVEFLSRAAAEEVLQNYSGSVMPNSDQPFRINWASFSTGEKRAVENGPDLSVFVGDLSPDVTDVLLHETFSDRYPSVKSAKVVIDSNTGRSKGYGFVRFGDENERSRALTEMNGAYCSNRQMRVGIATPKRAIANQQQHSSQAVILAGGHGSNGSMGYGSQSDGESTNATIFVGGIDPDVIDEDLRQPFSQFGEVVSVKIPVGKGCGFVQFADRKSAEDAIESLNGTVIGKNTVRLSWGRSPNKQWRGDSGQQWNGGYSRGHGYNNGGGYANHHDSNNYHGEN
B4: TSN2 (recombinant) (protein, UniProt Q9FLT0 1-985)
chain: MATGAATENQWLKGRVKAVTSGDCLVITALTHNRAGPPPEKTITLSSLMAPKMARRGGIDEPFAWESREFLRKLCIGKEVAFKVDYKVEAIAGREFGSVYLGNENLAKLVVQNGWAKVRRPGQQNQDKVSPYIAELEQLEEQAQQEGFGRWSKVPGAAEASIRNLPPSAVGDSGNFDAMGLLAASKGKPMEGIVEQVRDGSTIRVYLLPEFQFVQVFVAGLQAPSMGRRQSTQEAVVDPDVTATSNGDASAETRGPLTTAQRLAASAASSVEVSSDPFAMEAKYFTELRVLNRDVRIVLEGVDKFNNLIGSVYYSDGDTVKDLGLELVENGLAKYVEWSANMLDEEAKKKLKATELQCKKNRVKMWANYVPPASNSKAIHDQNFTGKVVEVVSGDCLVVADDSIPFGSPMAERRVCLSSIRSPKMGNPRREEKPAPYAREAKEFLRQKLIGMEVIVQMEYSRKISPGDGVTTSGAGDRVMDFGSVFLPSPTKGDTAVAAAATPGANIAELIISRGLGTVVRHRDFEERSNHYDALLAAEARAIAGKKNIHSAKDSPALHIADLTVASAKKAKDFLPSLQRINQISAVVEYVLSGHRFKLYIPKESCSIAFAFSGVRCPGRGEPYSEEAIALMRRKIMQRDVEIVVENVDRTGTFLGSMWEKNSKTNAGTYLLEAGLAKMQTGFGADRIPEAHILEMAERSAKNQKLKIWENYVEGEEVVNGSSKVETRQKETLKVVVTEVLGGGRFYVQTVGDQKVASIQNQLAALSLKDAPIIGSFNPKKGDIVLAQFSLDNSWNRAMIVNGPRGAVQSPEEEFEVFYIDYGNQEIVPYSAIRPVDPSVSSAPGLAQLCRLAYIKVPGKEEDFGRDAGEYLHTVTLESGKEFRAVVEERDTSGGKVKGQGTGTELVVTLIAVDDEISVNAAMLQEGIARMEKRRRWEPKDKQAALDALEKFQDEARKSRTGIWEYGDIQSDDEDNVPVRKPGRG

Molecular target: FUST1 (recombinant, forming droplets in vitro) (Arabidopsis thaliana) (UniProt F4JFL5)
Test: in vitro partitioning into condensates (confocal microscopy); 2.5 μM of each protein with 2.5 μM FUST1 droplets in 40 mM Tris-HCl pH 7.4 and 100 mM NaCl; compared at 4 °C and 37 °C; both purified

binding | Binder
binds | B1
binds | B2
binds | B3
binds | B4
